# Results of single-concentration screens

Amino acid sequences for entries named in this document (tags omitted).
UniProt I6X8D2, whole entry: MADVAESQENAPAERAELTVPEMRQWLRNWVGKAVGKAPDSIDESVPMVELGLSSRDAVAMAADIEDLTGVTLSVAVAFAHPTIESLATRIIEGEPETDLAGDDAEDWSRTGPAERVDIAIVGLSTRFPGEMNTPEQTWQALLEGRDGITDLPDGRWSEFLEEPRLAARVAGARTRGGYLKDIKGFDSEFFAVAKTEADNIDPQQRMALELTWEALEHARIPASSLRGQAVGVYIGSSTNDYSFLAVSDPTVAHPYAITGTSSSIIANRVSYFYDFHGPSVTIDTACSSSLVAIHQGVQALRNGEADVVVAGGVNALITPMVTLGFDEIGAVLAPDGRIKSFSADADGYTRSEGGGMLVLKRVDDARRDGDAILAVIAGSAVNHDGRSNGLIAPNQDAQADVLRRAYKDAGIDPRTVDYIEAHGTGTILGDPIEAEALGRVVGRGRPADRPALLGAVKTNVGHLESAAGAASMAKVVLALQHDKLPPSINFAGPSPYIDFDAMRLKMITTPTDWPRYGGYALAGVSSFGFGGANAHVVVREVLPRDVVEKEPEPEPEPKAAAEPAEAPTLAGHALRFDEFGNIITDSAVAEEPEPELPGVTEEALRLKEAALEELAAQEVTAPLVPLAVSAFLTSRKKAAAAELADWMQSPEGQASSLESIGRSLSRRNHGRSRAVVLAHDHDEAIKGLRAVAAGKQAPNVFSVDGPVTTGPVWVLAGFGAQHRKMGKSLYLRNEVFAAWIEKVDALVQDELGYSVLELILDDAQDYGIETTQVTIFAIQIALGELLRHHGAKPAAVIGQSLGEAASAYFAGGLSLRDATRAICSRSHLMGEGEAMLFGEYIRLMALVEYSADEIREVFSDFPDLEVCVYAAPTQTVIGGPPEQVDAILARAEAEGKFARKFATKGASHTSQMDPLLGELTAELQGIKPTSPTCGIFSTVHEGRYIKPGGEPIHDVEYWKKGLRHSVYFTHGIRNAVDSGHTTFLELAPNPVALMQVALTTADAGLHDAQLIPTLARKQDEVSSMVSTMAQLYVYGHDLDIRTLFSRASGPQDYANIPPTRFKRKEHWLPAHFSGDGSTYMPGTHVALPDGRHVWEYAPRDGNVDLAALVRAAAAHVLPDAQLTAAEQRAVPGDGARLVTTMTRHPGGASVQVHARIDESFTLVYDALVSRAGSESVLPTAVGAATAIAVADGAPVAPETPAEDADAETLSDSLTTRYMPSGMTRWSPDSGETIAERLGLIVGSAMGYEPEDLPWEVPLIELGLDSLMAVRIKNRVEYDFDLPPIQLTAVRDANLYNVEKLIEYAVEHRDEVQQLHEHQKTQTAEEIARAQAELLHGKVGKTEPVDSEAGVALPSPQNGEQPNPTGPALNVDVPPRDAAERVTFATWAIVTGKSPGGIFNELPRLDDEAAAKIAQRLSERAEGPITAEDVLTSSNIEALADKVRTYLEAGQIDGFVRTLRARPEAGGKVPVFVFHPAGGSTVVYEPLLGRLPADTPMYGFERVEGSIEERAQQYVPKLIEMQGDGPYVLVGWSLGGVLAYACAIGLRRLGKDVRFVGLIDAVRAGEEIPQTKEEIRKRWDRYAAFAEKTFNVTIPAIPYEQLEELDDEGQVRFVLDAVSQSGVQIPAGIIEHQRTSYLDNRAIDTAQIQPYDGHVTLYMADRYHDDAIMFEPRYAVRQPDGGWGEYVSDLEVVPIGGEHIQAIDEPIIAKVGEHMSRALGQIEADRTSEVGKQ

From ChEMBL document CHEMBL3988442, “University of Dundee, Small-Polar-MMV Screening Library” (2021).

Each number is a percent effect as filed. The controls that fix the scale are not given in the record; negative values are as filed. Compounds were drawn at random from those tested, without regard to their results.

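Polyketide synthase Pks13, Mycobacterium tuberculosis (UniProt I6X8D2). Enzyme assay of the thioesterase domain of polyketide synthase 13; the read-out is not stated. Concentration: 30 µM. The record gives no direction; the compounds picked for IC50 retests had high values, so higher reads as stronger inhibition. Of about 67,000 compounds tested this way, about 300 (0.46%) reached 50% or more in at least one test.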

* CC(NCc1c(C(C)C)nn(C)c1N1CCOCC1)C(=O)N(C)C (stereo not given) : -7.969%
* COCCNC(=O)[C@H]1C[C@@H]2CCN(c3nncs3)C[C@H]2O1 : -0.04987%
* COCCN1CCC2(CCCN(c3ncccn3)C2)C1 (stereo not given) : -36.55%
* Fc1cccc(Nc2nc(N3CCCC3)nc3c2CNCC3)c1 : -30.63%
* CC(C)S(=O)(=O)Cc1cccc(NC(=O)c2ccc[nH]2)c1 : -5.76%
* CCOC1CCCN(C(=O)Nc2cnn(CC(F)F)c2)C1 (stereo not given) : -15.82%
* Cc1nc(C)n(CC2CN(CCCc3ccccc3)CCO2)n1 (stereo not given) : -4.045%
* O=C1CC2(CCN(C(=O)C3CCCCC3)C2)Nc2ccccc2N1 (stereo not given) : -3.94%
* COCCOC(=O)N1C[C@H]2CC[C@@H]1CN(C1Cc3ccccc3C1)C2 : -11.71%
* Cc1ccc(CN2CCc3ncnc(-c4ccc(F)cc4)c3CC2)o1 : -2.05%
* CC(C)CC(=O)N1CC(=O)c2sc(Nc3ccc(F)cc3F)nc2C1 : 22.82%
* Cc1cccc(N2CC(c3nnc(N)s3)CC2=O)c1 (stereo not given) : -4.275%
* N[C@@H]1CC[C@@H](NC(=O)c2ccccc2OC(F)(F)C(F)F)C1 : 11.69%
* c1ccn2c(SCC3CN=C(N4CCOCC4)S3)ncc2c1 (stereo not given) : -32.19%
* COc1ccc(CN2CCCCC2CNC(=O)OC(C)(C)C)cc1F (stereo not given) : -13.94%
* CC(C#N)CSc1ccccc1NCC(=O)Nc1ccccc1 (stereo not given) : -27.8%
* COC(=O)c1sccc1S(=O)(=O)NCC1(O)CCOc2ccccc21 (stereo not given) : -1.06%
* O=C(CCCn1cncn1)NC1CCc2nccn2C1 (stereo not given) : -9.192%
* CCc1nc(C2CCCN2C(=O)CCNS(C)(=O)=O)no1 (stereo not given) : -16.16%
* Cc1ncsc1CN1C[C@H](C(=O)NC2CCCC2)[C@@H]2CCO[C@@H]2C1 : -16.17%
* O=C(C1CCCC1)N1CCC(C(O)c2ccc(F)cc2)CC1 (stereo not given) : -1.067%
* Cc1ccc(-c2csc(N)c2C#N)c(C)c1 : -50.27%
* CN(Cc1nc2c(cnn2C)c(=O)[nH]1)Cc1ccco1 : -20.57%
* Cn1nnn(-c2ccc(NS(=O)(=O)c3ccc(F)c(Cl)c3)cc2)c1=O : -37.97%
* Cc1cnc(C)c(N2CCC(c3nnc(CN(C)C)n3C3CC3)CC2)n1 : -15.36%
* Cc1ccc(-c2[nH]c3ccccc3c2C(=O)O)c(C)c1 : -13.62%
* O=C(NCC1CC1)C1CCC2(CCN(C(=O)c3cnccn3)CC2)O1 (stereo not given) : -24.04%
* Cc1ccc(C(C)C(=O)N2CCCN(Cc3cscn3)CC2)cc1 (stereo not given) : -4.16%
* C1=C(c2c[nH]c3ncccc23)CCN(Cc2nnc(C3CC3)o2)C1 : 11.98%
* N#CCC(=O)NCc1nnc2n1CCN(Cc1cccs1)C2 : -20.89%
* CC(C)c1nn(CC(=O)N2CCCC2)c(=O)c2c1cnn2C(C)(C)C : -37.63%
* CCC(C)C(=O)NS(=O)(=O)c1ccc(C#N)cc1C(F)(F)F (stereo not given) : 3.292%
* COCC1CCN(S(=O)(=O)N2C[C@H](c3ccccc3)[C@@H](N)C2)CC1 : -21.17%
* FC(F)(F)c1csc(N2CCN(Cc3ccccn3)CC2)n1 : -5.476%
* Cc1cc(S(=O)(=O)N2CCCc3cc(Br)ccc32)sc1C(=O)O : -14.04%
* O=C(c1ccc(Sc2ccccn2)cc1)N1CCCSCC1 : -12.83%
* NC(=O)c1ccccc1NC(=O)CCN1CCN(CCO)CC1 : 12.94%
* CCN(Cc1ccoc1)c1ncc(S(N)(=O)=O)s1 : 5.622%
* COc1ccccc1CNC(=O)N1CCN(Cc2cc(C)on2)CC1 : -29.08%
* Fc1ccc(-c2nc(CN3CCOC(Cn4cccn4)C3)co2)cc1 (stereo not given) : -9.566%
* CC(C)NC(=O)NC[C@H]1OC[C@@H](NCc2ccncc2)[C@@H]1O : -13.22%
* Cc1ccc(OC2(C(=O)O)CCN(C(=O)c3cc(C)oc3C)CC2)cn1 : -12.65%
* CCCc1nc(NCc2c(C)nn(CCC)c2C)c2cnn(C)c2n1 : -12.24%
* Cc1ccc(F)c(NC(=O)CCC(=O)N(C)Cc2cc(C3CC3)[nH]n2)c1 : 10.95%
* Cc1ccc(C2CN(CCS(C)(=O)=O)CCO2)c(C)c1 (stereo not given) : -19.09%
* N#Cc1cc(F)ccc1Cn1cnc(C2CCC2)cc1=O : 3.544%
* O=C(NCCc1cnccn1)c1cccc(S(=O)(=O)NC2CCOC2)c1 (stereo not given) : 4.127%
* N#Cc1cc(Cl)ccc1N1CCN(C(=O)C2CCC2)CC1 : -20.9%
* O=C(c1cccnc1SCc1ccccc1)N1CCOCC1 : -0.07327%
* CNS(=O)(=O)CC1CCCN1C(=O)c1ccc(C)c(C)c1 (stereo not given) : -39.7%
* CCN1CCC2(CC1)CC(NC(=O)N(C)C)c1cc(C)ccc12 (stereo not given) : -10.33%
* Cc1nc(NCc2noc(C3CCCO3)n2)c2ccsc2n1 (stereo not given) : -6.204%

Repeated from the top, 6 entries:

compound,percent effect
CC(NCc1c(C(C)C)nn(C)c1N1CCOCC1)C(=O)N(C)C (stereo not given),-7.969%
COCCNC(=O)[C@H]1C[C@@H]2CCN(c3nncs3)C[C@H]2O1,-0.04987%
COCCN1CCC2(CCCN(c3ncccn3)C2)C1 (stereo not given),-36.55%
Fc1cccc(Nc2nc(N3CCCC3)nc3c2CNCC3)c1,-30.63%
CC(C)S(=O)(=O)Cc1cccc(NC(=O)c2ccc[nH]2)c1,-5.76%
CCOC1CCCN(C(=O)Nc2cnn(CC(F)F)c2)C1 (stereo not given),-15.82%